Data as given in PubChem BioAssay AID1508597 (Cure First, 2020)

Test: 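Knock-downs altering ovarian cancer cell survival with or without PARP inhibitor rucaparib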 (primary screen)
System: human ovarian carcinoma lines grown from tumours: OCI-P5x (papillary serous) and OCI-C5x (clear cell)
Reagent: siRNA pool against human genes, 1.25 pmol siRNA per well
Time to read-out: 72 h or 96 h, depending on the cell culture
Treatment: rucaparib 20 µM (about IC30) or vehicle, present until read-out
Rucaparib or vehicle: Vehicle
Cell line: OCI-C5x (clear cell)
Read-out: 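Luminescent ATP-based viability assay read 72 or 96 h after transfection, depending on culture, given as normalised percent viability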
Scale: viability, normalised: higher = more viable cells remaining
Rule for the call: 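Active when normalised viability falls below 80 percent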
Calls: active = viability under 80%; inactive = viability 80% or more
This is an unselected part of the about 2,100 reagents, under one of the conditions tested. 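Calls flag viability under 80% in either arm, not effects specific to rucaparib; the reference for percent is not stated.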 Some reagents were tested in more than one well and are listed for each. Not stated in the record: the 100% reference.

no.	Gene	technical replicate	viability, normalised (%)	outcome
1	DOT1L (GeneID 84444)	1	40.1	active
2	DOT1L (GeneID 84444)	2	33.6	active
3	DOT1L (GeneID 84444)	3	35.1	active
4	ADK (GeneID 132)	1	75.7	active
5	ADK (GeneID 132)	2	60.4	active
6	ADK (GeneID 132)	3	59.3	active
7	RNF40 (GeneID 9810)	1	34.1	active
8	RNF40 (GeneID 9810)	2	34.4	active
9	RNF40 (GeneID 9810)	3	45.4	active
10	PDE6B (GeneID 5158)	1	51.4	active
11	PDE6B (GeneID 5158)	2	53.8	active
12	PDE6B (GeneID 5158)	3	43.9	active
13	ACVRL1 (GeneID 94)	1	56.6	active
14	ACVRL1 (GeneID 94)	2	48.1	active
15	ACVRL1 (GeneID 94)	3	57.4	active
16	ACIN1 (GeneID 22985)	1	51.5	active
17	ACIN1 (GeneID 22985)	2	50.8	active
18	ACIN1 (GeneID 22985)	3	29	active
19	POLE3 (GeneID 54107)	1	35.3	active
20	POLE3 (GeneID 54107)	2	35	active
21	POLE3 (GeneID 54107)	3	39.3	active
22	NRBP2 (GeneID 340371)	1	67	active
23	NRBP2 (GeneID 340371)	2	56.7	active
24	NRBP2 (GeneID 340371)	3	50.6	active
25	DNA2 (GeneID 1763)	1	74.8	active
26	DNA2 (GeneID 1763)	2	71.9	active
27	DNA2 (GeneID 1763)	3	57.1	active
28	TAF6L (GeneID 10629)	1	52.9	active
29	TAF6L (GeneID 10629)	2	66.3	active
30	TAF6L (GeneID 10629)	3	57.2	active
31	SFMBT2 (GeneID 57713)	1	39.4	active
32	SFMBT2 (GeneID 57713)	2	37.3	active
33	SFMBT2 (GeneID 57713)	3	45.2	active

8 entries from above, arranged by “viability, normalised (%)”, high to low:
Gene	technical replicate	viability, normalised (%)	outcome
ACVRL1 (GeneID 94)	3	57.4	active
ACIN1 (GeneID 22985)	1	51.5	active
ACIN1 (GeneID 22985)	2	50.8	active
ACVRL1 (GeneID 94)	2	48.1	active
POLE3 (GeneID 54107)	3	39.3	active
POLE3 (GeneID 54107)	1	35.3	active
POLE3 (GeneID 54107)	2	35	active
ACIN1 (GeneID 22985)	3	29	active

Additional reagents follow.
no.	Gene	technical replicate	viability, normalised (%)	outcome
34	TDRD10 (GeneID 126668)	1	62.2	active
35	TDRD10 (GeneID 126668)	2	65.4	active
36	TDRD10 (GeneID 126668)	3	47.3	active
37	SENP5 (GeneID 205564)	1	61.3	active
38	SENP5 (GeneID 205564)	2	53.8	active
39	SENP5 (GeneID 205564)	3	44.2	active
40	ANKK1 (GeneID 255239)	1	61.5	active
41	ANKK1 (GeneID 255239)	2	66	active
42	ANKK1 (GeneID 255239)	3	45.8	active
43	FGFR4 (GeneID 2264)	1	64.9	active
44	FGFR4 (GeneID 2264)	2	60.7	active
45	FGFR4 (GeneID 2264)	3	65.5	active
46	MYLK (GeneID 4638)	1	128	inactive
47	MYLK (GeneID 4638)	1	62.6	active
48	MYLK (GeneID 4638)	2	78.4	active
49	MYLK (GeneID 4638)	2	68.4	active
50	MYLK (GeneID 4638)	3	68.6	active
51	MYLK (GeneID 4638)	3	75.3	active
52	HDGFL1 (GeneID 154150)	1	59.6	active
53	HDGFL1 (GeneID 154150)	2	56.6	active
54	HDGFL1 (GeneID 154150)	3	68.2	active
55	MAPK13 (GeneID 5603)	1	75.4	active
56	MAPK13 (GeneID 5603)	2	60	active
57	MAPK13 (GeneID 5603)	3	43.3	active
58	BNIP2 (GeneID 663)	1	45.3	active
59	BNIP2 (GeneID 663)	2	48.2	active
60	BNIP2 (GeneID 663)	3	47.6	active
61	SCAF11 (GeneID 9169)	1	37.1	active
62	SCAF11 (GeneID 9169)	2	45.3	active
63	SCAF11 (GeneID 9169)	3	45.4	active
64	SKIC2 (GeneID 6499)	1	46.6	active
65	SKIC2 (GeneID 6499)	2	39.4	active
66	SKIC2 (GeneID 6499)	3	36.9	active
67	MTRF1L (GeneID 54516)	1	53.8	active
68	MTRF1L (GeneID 54516)	2	68.6	active
69	MTRF1L (GeneID 54516)	3	71.7	active
70	ASXL1 (GeneID 171023)	1	29.3	active
71	ASXL1 (GeneID 171023)	2	35	active
72	ASXL1 (GeneID 171023)	3	36.6	active
73	ZFP42 (GeneID 132625)	1	53.9	active
74	ZFP42 (GeneID 132625)	2	44.9	active
75	ZFP42 (GeneID 132625)	3	55.2	active
